In this experiment the test system is L1210 leukemia ip in BDF1 mice, survival T/C. In words: NCI In Vivo Anticancer Drug Screen. Data for tumor model L1210 Leukemia (intraperitoneal) in B6D2F1 (BDF1) mice. As to conditions: T/C endpoint: mean survival time, higher T/C = longer survival.
[1] abbreviates: dose: 200.0 mg/kg/injection, schedule: Q01DX001 (ip), vehicle: carboxymethylcellulose (CMC).
The mark [2] stands for this setting: dose: 400.0 mg/kg/injection, schedule: Q01DX001 (ip), vehicle: carboxymethylcellulose (CMC).
[3] abbreviates: dose: 100.0 mg/kg/injection, schedule: Q01DX Z (ip), vehicle: carboxymethylcellulose (CMC).
[4] abbreviates: dose: 400.0 mg/kg/injection, schedule: Q04DX003 (ip), vehicle: Klucel (hydroxypropylcellulose) (HPC).
The mark [5] stands for this setting: dose: 400.0 mg/kg/injection, schedule: Q04DX003 (ip), vehicle: saline with Tween-80.
The mark [6] stands for this setting: dose: 75.0 mg/kg/injection, schedule: Q01DX001 (ip), vehicle: saline.
[7] abbreviates: dose: 150.0 mg/kg/injection, schedule: Q01DX001 (ip), vehicle: saline.
The mark [8] stands for this setting: dose: 300.0 mg/kg/injection, schedule: Q01DX001 (ip), vehicle: saline.
The mark [9] stands for this setting: dose: 200.0 mg/kg/injection, schedule: Q04DX003 (ip), vehicle: Klucel (hydroxypropylcellulose) (HPC).
Where [10] appears, read: dose: 400.0 mg/kg/injection, schedule: Q04DX002 (ip), vehicle: saline with Tween-80.
The mark [11] stands for this setting: dose: 200.0 mg/kg/injection, schedule: Q01DX009 (ip), vehicle: saline with Tween-80.

The list shows only some results of the screen, not a fair sample: it is rich in T/C values a quarter to a half above the control, in often repeated tests (any T/C) and in doses without a T/C. Further doses and runs are listed elsewhere. T/C is the treated group as % of the vehicle group. Some entries give survivors of the animals treated and no T/C: the source holds a T/C of zero for them, seemingly a mark for toxic or unscored doses. Some doses without a T/C left all or most animals alive at the check, yet need not have been tolerated: the source hardly ever lists a survival T/C far under the control, and the zero likely stands for such cases as well. Survivors were counted at the toxicity check, usually on the fifth day, unless a day is given; later deaths do not show. Schedule codes are those of the source, taken here to give the interval after Q, in days (D) or hours (H), and the number of doses after X. Some schedule codes hold Z or #, which are not explained here. Some entries hold several experiments; the values are given in rising order. Where survival is the endpoint, the PubChem record calls one and a half times the control and up active, and a quarter to a half above the control has no call in these data; cut-offs in other NCI protocols can differ. Some T/C values carry the count of animals alive at the toxicity check (mostly the fifth day); where none is given, no animal had died by that day.

Turning to `COC(=O)[C@@H]1c2cc3c(c(O)c2[C@@H](OC)C[C@@]1(C)O)C(=O)c1c(O)cc2c(c1C3=O)OC1O[C@@]2(C)[C@H](O)[C@@H](N(C)C)[C@@H]1O`, the T/C by setting is: (dose: 25.0 mg/kg/injection, schedule: Q01DX015 (ip), vehicle: carboxymethylcellulose (CMC)) 125 % of control; under setting [1], 127 % of control. Besides, the survivor count is on record as 6 of 6 (dose: 100.0 mg/kg/injection, schedule: Q01DX009 (ip), vehicle: saline); 0 of 6 (dose: 100.0 mg/kg/injection, schedule: Q01DX015 (ip), vehicle: carboxymethylcellulose (CMC)); 0 of 6 (dose: 200.0 mg/kg/injection, schedule: Q01DX015 (ip), vehicle: carboxymethylcellulose (CMC)); 0 of 4 under setting [2]; 0 of 6 (dose: 400.0 mg/kg/injection, schedule: Q01DX015 (ip), vehicle: carboxymethylcellulose (CMC)).

As to `CN=C(NC)c1ccc(NC(=O)/C=C/C(=O)Nc2ccc(C(=NC)NC)cc2)cc1`, the survivor count under setting [3] was 2 of 6.

As for `O=[N+]([O-])/C=C/c1ccc([N+](=O)[O-])cc1`, the survivor count was 3 of 7 (dose: 50.0 mg/kg/injection, schedule: Q01DX005 (ip), vehicle: saline with Tween-80); 0 of 7 (dose: 100.0 mg/kg/injection, schedule: Q01DX005 (ip), vehicle: saline with Tween-80); 0 of 7 (dose: 200.0 mg/kg/injection, schedule: Q01DX005 (ip), vehicle: saline with Tween-80); 1 of 6 (dose: 200.0 mg/kg/injection, schedule: Q01DX009 (ip), vehicle: Klucel (hydroxypropylcellulose) (HPC)); 1 of 7 (dose: 400.0 mg/kg/injection, schedule: Q01DX005 (ip), vehicle: saline with Tween-80); 3 of 6 under setting [4].

Consider `CN(N=O)C(=O)Nc1ccc(F)cc1`, for which the T/C is 129 % of control (dose: 50.0 mg/kg/injection, schedule: Q01DX Z (ip), vehicle: carboxymethylcellulose (CMC)) and 130 % of control (dose: 150.0 mg/kg/injection, schedule: Q01DX001 (ip), vehicle: carboxymethylcellulose (CMC)). In addition, the survivor count runs as follows: under setting [3], 5 of 6; (dose: 300.0 mg/kg/injection, schedule: Q01DX001 (ip), vehicle: carboxymethylcellulose (CMC)) 6 of 10; (dose: 600.0 mg/kg/injection, schedule: Q01DX001 (ip), vehicle: carboxymethylcellulose (CMC)) 0 of 10; (dose: 1200.0 mg/kg/injection, schedule: Q01DX001 (ip), vehicle: carboxymethylcellulose (CMC)) 0 of 10.

Take `O=c1[nH]cc(Br)c2sccc12`: the survivor count under setting [5] is recorded as 6 of 6.

Regarding `COC1=CC23CCNC(Cc4ccc(OC)c(O)c42)C3=CC1` (centres undefined), the survivor count (dose: 20.0 mg/kg/injection, schedule: Q01DX001 (ip), vehicle: saline) is on record as 2 of 6; the survivor count (dose: 40.0 mg/kg/injection, schedule: Q01DX001 (ip), vehicle: saline) is listed as 0 of 6; the survivor count under setting [6] was 0 of 6; the survivor count under setting [7] is on record as 0 of 6; the survivor count under setting [8] was 0 of 6.

Consider `O=C1c2cc3c(cc2CCC1N1CCOCC1)CCCC3` (centres undefined), for which the survivor count under setting [5] is given as 1 of 6.

With `CC1(C)N=C(N)N=C(N)N1c1ccc2ccccc2c1`, the survivor count reads like this: (dose: 100.0 mg/kg/injection, schedule: Q01DX015 (ip), vehicle: other) 0 of 6; (dose: 200.0 mg/kg/injection, schedule: Q01DX001 (ip), vehicle: other) 1 of 4; (dose: 200.0 mg/kg/injection, schedule: Q01DX015 (ip), vehicle: other) 0 of 6; (dose: 400.0 mg/kg/injection, schedule: Q01DX001 (ip), vehicle: other) 0 of 4.

In the case of `CC1(C)N=C(N)N=C(N)N1c1cccc(Oc2ccc(N)cc2)c1`, the survivor count was 1 of 6 and 3 of 6 (dose: 100.0 mg/kg/injection, schedule: Q04DX003 (ip), vehicle: Klucel (hydroxypropylcellulose) (HPC)); 1 of 6 under setting [9]; 0 of 6 under setting [4].

Regarding `Cc1nc(CCl)no1`, under setting [10], the survivor count is on record as 1 of 3.

With `O=C(O)c1cc2ccccc2c(Br)c1O.OC1CCCC2CCC[N-]C12.[Cu+]`, under “dose: 8.0 mg/kg/injection, schedule: Q01DX015 (sc), vehicle: steroid suspending solution”, the T/C is 147 % of control. Moreover, the survivor count by setting is: (dose: 200.0 mg/kg/injection, schedule: Q01DX001 (sc), vehicle: steroid suspending solution) 2 of 6; (dose: 400.0 mg/kg/injection, schedule: Q01DX001 (sc), vehicle: steroid suspending solution) 0 of 6.

In the case of `Cc1cccc(Cl)c1NC(=O)Cn1cccc1`, under setting [4], the survivor count is 1 of 6.

`Nn1cnc2c(SCc3ccccc3)ncnc21`: the T/C (dose: 210.0 mg/kg/injection, schedule: Q01DX015 (ip), vehicle: carboxymethylcellulose (CMC)) is 136 % of control. Moreover, the survivor count under setting [2] was 0 of 4.

Take `O=Cc1[nH]c(=O)[nH]c(=O)c1Br`: the survivor count under setting [11] was 6 of 6 and the survivor count (dose: 400.0 mg/kg/injection, schedule: Q01DX001 (ip), vehicle: saline with Tween-80) is reported as 2 of 6.

`Nc1ccc(CCCCc2ccccc2)c(Cl)c1`: the survivor count under setting [8] was 2 of 6.

Turning to `CCC1(O)CC(OC2CC(N(C)C)C(OC3CC(O)C(O)C(C)O3)C(C)O2)c2c(cc3c(c2O)C(=O)c2c(O)ccc(O)c2C3=O)C1C(=O)OC` (centres undefined), the T/C was 135 % of control (dose: 12.8 mg/kg/injection, schedule: Q01DX001 (ip), vehicle: saline); 139 % of control (dose: 25.6 mg/kg/injection, schedule: Q01DX001 (ip), vehicle: saline); 129 % of control [5 of 6 alive] (dose: 51.2 mg/kg/injection, schedule: Q01DX001 (ip), vehicle: saline).

As to `CCOC(=O)C(C)CC(C)(C(=O)OCC)C(=O)OCC` (centres undefined), the survivor count under setting [9] is 2 of 6 and the survivor count under setting [4] is reported as 1 of 6.

As to `CN(C=O)C(=S)[S][Sb]([S]C(=S)N(C)C=O)[S]c1nc2ccc(N=Nc3ccc(NS(=O)(=O)c4ccc(NC(=O)C(Cl)Cl)cc4)cc3)cc2s1`, the survivor count reads like this: (dose: 200.0 mg/kg/injection, schedule: Q01DX001 (ip), vehicle: steroid suspending solution) 1 of 6; (dose: 400.0 mg/kg/injection, schedule: Q01DX001 (ip), vehicle: steroid suspending solution) 1 of 6.

For the molecule `c1ccc2c(c1)CCN(C1=NCCO1)C2`, the survivor count reads like this: under setting [6], 2 of 6; under setting [7], 0 of 6; under setting [8], 0 of 6.

Turning to `CC(C)(CN=Cc1ccccc1[O-])N=Cc1ccccc1[O-].[O]=[V]`, the survivor count (dose: 100.0 mg/kg/injection, schedule: Q01DX009 (ip), vehicle: saline with Tween-80) is recorded as 1 of 6 and the survivor count under setting [11] was 0 of 6.

Take `c1ccc(C[S][Sn]([c]2ccccc2)([c]2ccccc2)[c]2ccccc2)cc1`: the survivor count is listed as 1 of 3 (dose: 100.0 mg/kg/injection, schedule: Q04DX002 (ip), vehicle: saline with Tween-80); 0 of 3 (dose: 200.0 mg/kg/injection, schedule: Q04DX002 (ip), vehicle: saline with Tween-80); 0 of 3 under setting [10].

With `Nc1nc(Cl)c(C=O)c(Cl)n1`, the survivor count by setting is: (dose: 50.0 mg/kg/injection, schedule: Q01DX001 (ip), vehicle: carboxymethylcellulose (CMC)) 2 of 4; (dose: 100.0 mg/kg/injection, schedule: Q01DX001 (ip), vehicle: carboxymethylcellulose (CMC)) 2 of 4; under setting [1], 1 of 4; under setting [2], 0 of 4.

Consider `O=C(N/N=C/c1ccc(Cl)cc1)C(O)(c1ccccc1)c1ccccc1`, for which the survivor count under setting [11] was 6 of 6.

Source of the values: PubChem BioAssay AID248 (DTP/NCI, 2004).
